Measurements as given in US20230365651A1.

Molecular target: HLA-B*44:02 (human)
Assay: UV peptide exchange, anti-b2m ELISA

B2: … (SEQ ID NO: 57) (peptide)
peptide: QESDLRLFL
- binding: binds

B4: … (SEQ ID NO: 59) (peptide)
peptide: SENVTMKVV
- binding: binds

B8: SEITRIEM (SEQ ID NO: 205) (peptide)
peptide: SEITRIEM
- binding: binds

B11: LEAQQEAL (SEQ ID NO: 193) (peptide)
peptide: LEAQQEAL
- binding: binds

B13: GEGPKTSW (SEQ ID NO: 181) (peptide)
peptide: GEGPKTSW
- binding: binds

B21: QEAARAAL (SEQ ID NO: 198) (peptide)
peptide: QEAARAAL
- binding: binds

B22: … (SEQ ID NO: 180) (peptide)
peptide: REAGDEFELRY
- binding: binds

B26: … (SEQ ID NO: 53) (peptide)
peptide: MEHPGKLLF
- binding: binds

B29: … (SEQ ID NO: 55) (peptide)
peptide: HETETRTTW
- binding: binds

B32: GEIEIHLL (SEQ ID NO: 400) (peptide)
peptide: GEIEIHLL
- binding: binds

B33: … (SEQ ID NO: 177) (peptide)
peptide: TEVGTMNLF
- binding: binds

B35: … (SEQ ID NO: 174) (peptide)
peptide: AEATARLNVF
- binding: binds

B36: … (SEQ ID NO: 56) (peptide)
peptide: SEPDTTASW
- binding: binds

B38: … (SEQ ID NO: 173) (peptide)
peptide: AEAQVGDERDY
- binding: binds

B39: … (SEQ ID NO: 175) (peptide)
peptide: AEIEPKADG
- binding: binds

B40: … (SEQ ID NO: 182) (peptide)
peptide: KEATEAQSL
- binding: binds

B41: … (SEQ ID NO: 176) (peptide)
peptide: AEIEPKADGSW
- binding: binds

B43: … (SEQ ID NO: 179) (peptide)
peptide: REAGDEFEL
- binding: binds

B44: … (SEQ ID NO: 178) (peptide)
peptide: NELFRDGVNW
- binding: binds

B47: … (SEQ ID NO: 183) (peptide)
peptide: YEKGIMQKV
- binding: binds

B48: KEFLFNMY (SEQ ID NO: 189) (peptide)
peptide: KEFLFNMY
- binding: binds

B50: … (SEQ ID NO: 54) (peptide)
peptide: AEITITTQTGY
- binding: binds

B51: TEVSRTEL (SEQ ID NO: 209) (peptide)
peptide: TEVSRTEL
- binding: binds

B52: GEMEQKQL (SEQ ID NO: 58) (peptide)
peptide: GEMEQKQL
- binding: binds

The next lines start with the values.

- binding: binds
B1: … (SEQ ID NO: 195) (peptide)
peptide: AEDKRHYSV

- binding: binds
B3: … (SEQ ID NO: 202) (peptide)
peptide: HESEATASW

- binding: binds
B5: … (SEQ ID NO: 210) (peptide)
peptide: VEAADIFQNF

- binding: binds
B6: … (SEQ ID NO: 208) (peptide)
peptide: TEVSRTEAI

- binding: binds
B7: … (SEQ ID NO: 185) (peptide)
peptide: AERQPGAASL

- binding: binds
B9: … (SEQ ID NO: 188) (peptide)
peptide: AEFAKKQPWW

- binding: binds
B10: … (SEQ ID NO: 197) (peptide)
peptide: AEVLLPRLV

- binding: binds
B12: … (SEQ ID NO: 200) (peptide)
peptide: AESIPTVSF

- binding: binds
B14: … (SEQ ID NO: 211) (peptide)
peptide: EEKVFPSPLW

- binding: binds
B15: … (SEQ ID NO: 206) (peptide)
peptide: SESVTSRTSY

- binding: binds
B16: … (SEQ ID NO: 194) (peptide)
peptide: KEVDPTSHSY

- binding: binds
B17: … (SEQ ID NO: 191) (peptide)
peptide: EEDAALFKAW

- binding: binds
B18: … (SEQ ID NO: 214) (peptide)
peptide: VEQTRAGSLL

- binding: binds
B19: … (SEQ ID NO: 199) (peptide)
peptide: REIDESLIFY

- binding: binds
B20: … (SEQ ID NO: 196) (peptide)
peptide: REMPGGPVW

- binding: binds
B23: … (SEQ ID NO: 402) (peptide)
peptide: RELANDELIL

- binding: binds
B24: … (SEQ ID NO: 190) (peptide)
peptide: YEVARILNL

- binding: binds
B25: … (SEQ ID NO: 397) (peptide)
peptide: REGDTVQLL

- binding: binds
B27: … (SEQ ID NO: 399) (peptide)
peptide: RELLHLVTL

- binding: binds
B28: … (SEQ ID NO: 186) (peptide)
peptide: REGPEEPGL

- binding: binds
B30: … (SEQ ID NO: 203) (peptide)
peptide: IEHSTQAQDTL

- binding: binds
B31: … (SEQ ID NO: 192) (peptide)
peptide: YEFKFPNRL

- binding: binds
B34: … (SEQ ID NO: 184) (peptide)
peptide: AELEALTDLW

- binding: binds
B37: … (SEQ ID NO: 204) (peptide)
peptide: RETSTSEETSL

- binding: binds
B42: … (SEQ ID NO: 212) (peptide)
peptide: MEQKQLQKRF

- binding: binds
B45: … (SEQ ID NO: 201) (peptide)
peptide: AETILTFHAF

- binding: binds
B46: … (SEQ ID NO: 396) (peptide)
peptide: REASGLLSL

- binding: binds
B49: … (SEQ ID NO: 398) (peptide)
peptide: SFEQVVNELF

- binding: binds
B53: … (SEQ ID NO: 207) (peptide)
peptide: TEARATSDSW

- binding: binds
B54: … (SEQ ID NO: 187) (peptide)
peptide: GEAQTRIAW

- binding: binds
B55: … (SEQ ID NO: 213) (peptide)
peptide: KESIPRWYY

No constants are given. Whether binding was seen depends on the method and setting. Binding can be weak; no strength is given. Each block holds one binder with its values, some of them ahead of it.
